According to the supplement of paper PMC10849652:
This is one part of the list.

Sequences of proteins named here, by UniProt entry; tags and fusion partners are left off. A change or cut given only in a name is not applied to a line headed by its entry.
UniProt Q9NX38: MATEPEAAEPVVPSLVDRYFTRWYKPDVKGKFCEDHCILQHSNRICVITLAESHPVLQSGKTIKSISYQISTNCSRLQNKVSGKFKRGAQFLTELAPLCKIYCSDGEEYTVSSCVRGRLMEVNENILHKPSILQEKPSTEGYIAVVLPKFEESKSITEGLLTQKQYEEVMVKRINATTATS
UniProt P33121: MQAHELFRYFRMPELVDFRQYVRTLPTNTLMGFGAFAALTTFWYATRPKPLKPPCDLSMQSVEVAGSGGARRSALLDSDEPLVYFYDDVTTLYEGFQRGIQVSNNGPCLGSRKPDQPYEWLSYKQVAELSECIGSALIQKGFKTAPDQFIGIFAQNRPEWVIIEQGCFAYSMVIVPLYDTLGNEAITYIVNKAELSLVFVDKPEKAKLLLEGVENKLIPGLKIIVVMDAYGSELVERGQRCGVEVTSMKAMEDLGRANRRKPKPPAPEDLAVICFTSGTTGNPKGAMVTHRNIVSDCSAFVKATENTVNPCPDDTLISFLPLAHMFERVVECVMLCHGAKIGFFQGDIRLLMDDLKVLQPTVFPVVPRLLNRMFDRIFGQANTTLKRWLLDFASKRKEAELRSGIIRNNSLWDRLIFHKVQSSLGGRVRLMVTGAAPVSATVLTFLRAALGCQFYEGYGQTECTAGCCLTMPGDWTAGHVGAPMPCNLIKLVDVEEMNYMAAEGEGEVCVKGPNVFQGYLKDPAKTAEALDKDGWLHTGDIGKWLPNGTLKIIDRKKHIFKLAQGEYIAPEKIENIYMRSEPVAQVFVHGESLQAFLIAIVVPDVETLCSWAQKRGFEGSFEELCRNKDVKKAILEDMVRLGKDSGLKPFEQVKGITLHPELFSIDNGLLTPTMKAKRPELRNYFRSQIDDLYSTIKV
UniProt Q8TB40: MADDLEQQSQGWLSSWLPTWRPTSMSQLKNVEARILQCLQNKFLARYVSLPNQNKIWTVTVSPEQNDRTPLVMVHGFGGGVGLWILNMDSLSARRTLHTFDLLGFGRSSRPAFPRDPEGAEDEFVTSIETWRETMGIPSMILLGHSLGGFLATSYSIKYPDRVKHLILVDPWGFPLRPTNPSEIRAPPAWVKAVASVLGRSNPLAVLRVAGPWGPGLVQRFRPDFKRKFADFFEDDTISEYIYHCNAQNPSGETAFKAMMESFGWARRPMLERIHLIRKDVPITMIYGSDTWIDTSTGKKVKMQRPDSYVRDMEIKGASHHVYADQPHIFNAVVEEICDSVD
UniProt P11117: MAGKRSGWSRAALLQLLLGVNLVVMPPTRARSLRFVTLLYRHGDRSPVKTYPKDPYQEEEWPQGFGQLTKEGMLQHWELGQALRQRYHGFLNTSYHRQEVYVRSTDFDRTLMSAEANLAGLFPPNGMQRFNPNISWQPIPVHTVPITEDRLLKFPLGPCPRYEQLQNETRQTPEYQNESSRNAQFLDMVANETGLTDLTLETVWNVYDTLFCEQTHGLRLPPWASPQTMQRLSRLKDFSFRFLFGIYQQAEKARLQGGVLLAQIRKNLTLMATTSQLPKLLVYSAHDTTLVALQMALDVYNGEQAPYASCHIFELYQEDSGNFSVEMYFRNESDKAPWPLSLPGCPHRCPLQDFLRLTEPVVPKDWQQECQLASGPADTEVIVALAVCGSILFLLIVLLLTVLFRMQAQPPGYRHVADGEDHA
UniProt P24666: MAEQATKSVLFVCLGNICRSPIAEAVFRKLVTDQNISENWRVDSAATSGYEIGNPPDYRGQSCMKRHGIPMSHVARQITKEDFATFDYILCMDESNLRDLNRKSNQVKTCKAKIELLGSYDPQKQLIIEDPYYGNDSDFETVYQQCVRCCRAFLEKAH
UniProt Q13444: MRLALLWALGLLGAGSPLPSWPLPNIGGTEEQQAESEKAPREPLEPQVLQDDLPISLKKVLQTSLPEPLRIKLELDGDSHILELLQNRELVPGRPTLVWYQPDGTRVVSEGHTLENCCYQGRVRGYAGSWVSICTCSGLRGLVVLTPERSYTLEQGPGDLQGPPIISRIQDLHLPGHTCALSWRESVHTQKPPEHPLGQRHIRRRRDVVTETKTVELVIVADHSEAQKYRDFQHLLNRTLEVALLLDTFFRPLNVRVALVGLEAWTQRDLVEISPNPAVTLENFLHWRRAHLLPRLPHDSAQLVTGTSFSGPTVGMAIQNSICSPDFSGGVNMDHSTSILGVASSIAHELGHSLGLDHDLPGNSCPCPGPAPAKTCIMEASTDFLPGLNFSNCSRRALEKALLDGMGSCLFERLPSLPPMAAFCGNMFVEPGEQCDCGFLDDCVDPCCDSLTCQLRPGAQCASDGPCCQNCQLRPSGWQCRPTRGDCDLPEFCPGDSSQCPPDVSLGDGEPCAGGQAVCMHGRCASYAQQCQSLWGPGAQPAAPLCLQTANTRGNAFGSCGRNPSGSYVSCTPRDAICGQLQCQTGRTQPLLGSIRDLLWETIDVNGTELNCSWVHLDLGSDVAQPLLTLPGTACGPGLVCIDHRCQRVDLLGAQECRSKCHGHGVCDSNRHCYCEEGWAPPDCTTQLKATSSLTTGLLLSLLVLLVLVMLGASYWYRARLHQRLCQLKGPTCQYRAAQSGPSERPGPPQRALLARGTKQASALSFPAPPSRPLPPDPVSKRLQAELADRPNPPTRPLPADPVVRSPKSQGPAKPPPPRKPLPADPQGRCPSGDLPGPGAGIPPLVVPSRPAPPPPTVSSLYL
UniProt P42025, whole entry, looked up: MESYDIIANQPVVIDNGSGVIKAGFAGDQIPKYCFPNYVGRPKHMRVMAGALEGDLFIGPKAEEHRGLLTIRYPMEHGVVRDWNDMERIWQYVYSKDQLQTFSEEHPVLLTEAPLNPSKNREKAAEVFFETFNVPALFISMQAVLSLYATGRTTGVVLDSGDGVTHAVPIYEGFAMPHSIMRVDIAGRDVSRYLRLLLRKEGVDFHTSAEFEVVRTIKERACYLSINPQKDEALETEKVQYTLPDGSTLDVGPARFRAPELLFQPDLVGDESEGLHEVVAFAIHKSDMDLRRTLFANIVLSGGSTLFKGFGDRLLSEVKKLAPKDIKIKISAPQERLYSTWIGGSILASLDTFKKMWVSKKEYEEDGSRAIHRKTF
UniProt Q96M93: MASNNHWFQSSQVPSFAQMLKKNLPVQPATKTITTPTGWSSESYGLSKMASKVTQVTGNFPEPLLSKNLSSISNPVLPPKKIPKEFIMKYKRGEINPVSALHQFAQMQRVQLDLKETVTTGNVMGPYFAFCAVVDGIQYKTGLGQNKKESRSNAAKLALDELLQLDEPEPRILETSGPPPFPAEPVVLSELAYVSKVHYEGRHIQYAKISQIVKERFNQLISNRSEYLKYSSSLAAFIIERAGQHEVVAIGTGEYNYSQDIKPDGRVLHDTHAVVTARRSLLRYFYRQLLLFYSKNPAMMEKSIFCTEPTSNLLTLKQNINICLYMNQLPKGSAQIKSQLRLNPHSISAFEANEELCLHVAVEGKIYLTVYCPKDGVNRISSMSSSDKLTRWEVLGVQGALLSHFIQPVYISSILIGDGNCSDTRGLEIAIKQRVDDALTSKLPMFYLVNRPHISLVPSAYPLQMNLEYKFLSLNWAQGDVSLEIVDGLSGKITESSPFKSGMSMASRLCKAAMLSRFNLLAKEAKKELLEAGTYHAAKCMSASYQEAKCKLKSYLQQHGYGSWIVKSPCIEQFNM
UniProt Q2M2I8: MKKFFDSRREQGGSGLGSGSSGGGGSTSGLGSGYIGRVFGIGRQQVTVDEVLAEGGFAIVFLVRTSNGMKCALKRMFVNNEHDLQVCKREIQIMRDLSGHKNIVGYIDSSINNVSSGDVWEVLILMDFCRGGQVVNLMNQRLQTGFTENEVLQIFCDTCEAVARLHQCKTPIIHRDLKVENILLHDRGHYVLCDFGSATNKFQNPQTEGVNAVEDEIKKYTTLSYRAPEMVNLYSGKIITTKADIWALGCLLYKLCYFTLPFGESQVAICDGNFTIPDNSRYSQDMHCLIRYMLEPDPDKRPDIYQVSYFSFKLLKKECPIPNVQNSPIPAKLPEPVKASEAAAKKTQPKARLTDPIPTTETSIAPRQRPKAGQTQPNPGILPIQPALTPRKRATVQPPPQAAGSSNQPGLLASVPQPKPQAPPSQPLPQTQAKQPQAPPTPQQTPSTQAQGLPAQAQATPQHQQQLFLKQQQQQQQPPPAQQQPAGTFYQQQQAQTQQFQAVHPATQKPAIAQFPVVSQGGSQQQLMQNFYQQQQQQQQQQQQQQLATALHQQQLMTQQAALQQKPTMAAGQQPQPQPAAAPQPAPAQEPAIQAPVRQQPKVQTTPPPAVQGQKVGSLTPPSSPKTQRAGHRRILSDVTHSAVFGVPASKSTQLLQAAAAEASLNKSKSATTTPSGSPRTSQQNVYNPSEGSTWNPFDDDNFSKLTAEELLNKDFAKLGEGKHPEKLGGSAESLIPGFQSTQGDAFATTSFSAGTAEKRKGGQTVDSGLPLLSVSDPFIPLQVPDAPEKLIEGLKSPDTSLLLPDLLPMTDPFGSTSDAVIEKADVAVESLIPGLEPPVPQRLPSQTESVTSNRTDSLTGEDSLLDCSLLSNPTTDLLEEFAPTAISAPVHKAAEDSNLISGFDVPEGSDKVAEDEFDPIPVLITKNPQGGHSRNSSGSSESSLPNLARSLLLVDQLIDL
UniProt Q9Y312: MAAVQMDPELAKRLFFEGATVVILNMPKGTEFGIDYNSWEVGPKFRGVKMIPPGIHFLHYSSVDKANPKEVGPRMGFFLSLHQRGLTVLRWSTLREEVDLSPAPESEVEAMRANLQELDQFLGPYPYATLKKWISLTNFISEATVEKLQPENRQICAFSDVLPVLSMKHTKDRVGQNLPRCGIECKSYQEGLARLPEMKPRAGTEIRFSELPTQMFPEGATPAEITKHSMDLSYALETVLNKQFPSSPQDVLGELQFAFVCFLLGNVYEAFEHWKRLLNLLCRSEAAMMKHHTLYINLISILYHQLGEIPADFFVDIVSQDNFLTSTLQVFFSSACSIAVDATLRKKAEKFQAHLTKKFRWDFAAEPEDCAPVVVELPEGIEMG
UniProt Q6UY14: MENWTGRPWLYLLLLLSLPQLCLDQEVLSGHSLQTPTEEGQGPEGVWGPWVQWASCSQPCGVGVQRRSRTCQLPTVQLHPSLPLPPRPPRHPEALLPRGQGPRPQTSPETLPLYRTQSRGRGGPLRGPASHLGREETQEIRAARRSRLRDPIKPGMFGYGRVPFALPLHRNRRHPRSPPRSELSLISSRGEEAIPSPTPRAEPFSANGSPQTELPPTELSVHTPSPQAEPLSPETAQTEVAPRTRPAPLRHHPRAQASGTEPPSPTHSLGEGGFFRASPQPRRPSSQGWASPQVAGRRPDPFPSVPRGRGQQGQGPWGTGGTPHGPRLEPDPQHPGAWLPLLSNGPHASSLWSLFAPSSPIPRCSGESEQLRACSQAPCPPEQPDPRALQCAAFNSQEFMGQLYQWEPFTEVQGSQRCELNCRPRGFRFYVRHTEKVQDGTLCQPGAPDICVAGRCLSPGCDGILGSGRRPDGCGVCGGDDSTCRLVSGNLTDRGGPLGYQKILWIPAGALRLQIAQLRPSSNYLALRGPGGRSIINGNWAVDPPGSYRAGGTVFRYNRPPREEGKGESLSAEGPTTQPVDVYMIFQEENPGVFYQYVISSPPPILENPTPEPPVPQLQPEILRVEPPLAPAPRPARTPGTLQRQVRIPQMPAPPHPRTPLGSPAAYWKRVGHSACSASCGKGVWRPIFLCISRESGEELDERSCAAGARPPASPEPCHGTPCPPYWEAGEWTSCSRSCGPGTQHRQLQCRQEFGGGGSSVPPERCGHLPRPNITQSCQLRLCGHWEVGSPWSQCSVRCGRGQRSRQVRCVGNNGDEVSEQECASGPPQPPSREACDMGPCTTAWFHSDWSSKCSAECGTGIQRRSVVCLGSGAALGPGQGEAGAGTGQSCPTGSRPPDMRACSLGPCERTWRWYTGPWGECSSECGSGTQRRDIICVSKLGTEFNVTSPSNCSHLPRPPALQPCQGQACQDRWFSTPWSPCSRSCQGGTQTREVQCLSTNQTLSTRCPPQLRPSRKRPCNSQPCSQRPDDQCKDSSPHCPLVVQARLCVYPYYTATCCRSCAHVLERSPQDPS
UniProt O95870: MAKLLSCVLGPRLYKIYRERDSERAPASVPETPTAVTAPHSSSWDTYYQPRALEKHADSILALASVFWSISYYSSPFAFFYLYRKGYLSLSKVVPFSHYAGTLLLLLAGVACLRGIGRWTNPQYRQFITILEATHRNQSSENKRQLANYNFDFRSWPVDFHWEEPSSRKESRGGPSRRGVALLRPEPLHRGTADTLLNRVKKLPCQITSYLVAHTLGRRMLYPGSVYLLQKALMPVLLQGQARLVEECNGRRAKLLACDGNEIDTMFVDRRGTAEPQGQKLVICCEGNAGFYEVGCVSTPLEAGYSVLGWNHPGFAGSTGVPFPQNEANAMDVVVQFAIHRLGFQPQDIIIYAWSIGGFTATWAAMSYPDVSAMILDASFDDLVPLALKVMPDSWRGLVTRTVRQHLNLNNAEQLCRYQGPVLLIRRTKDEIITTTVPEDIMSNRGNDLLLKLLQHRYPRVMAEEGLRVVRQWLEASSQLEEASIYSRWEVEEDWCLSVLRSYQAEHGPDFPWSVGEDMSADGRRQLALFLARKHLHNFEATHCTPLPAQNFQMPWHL

Assays:
Assay in all cases: log2 fold change, soluble protein after heating vs DMSO (PISA); higher = thermal stabilisation; K562 cells, 10 uM, 30 min; active = over 0.2 and 3.5 SD of the protein, either way, in both replicates (recomputed)
[1] = compound: C1=CC=C(C=C1)[C@H](COC2=CC3=C(C=C2)NC(=O)N3)NC(=O)C4=CC=CN(C4=O)CC5=CC(=C(C=C5)F)F
Outline: (§1)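 Values are thermal stability changes relative to control samples and are taken from duplicates. They are stated as log2 fold changes. Before quantification by TMTpro 16plex LC-MS/MS with equalised channel sums, K562 cells at 2×10^6 cells/mL were treated with 10 μM compound for 30 min, heated in aliquots for 3 min across 48°C-58°C, pooled, extracted in PBS with 0.5% NP-40 at 4°C, and centrifuged at 21,000xg for 90 min to give the soluble supernatant.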

[2] = compound: CC1=C(SC2=C1C(=N[C@H](C3=NN=C(N32)C)CC(=O)N)C4=CC=C(C=C4)Cl)C
Outline: as §1

[3] = compound: CC1=C2C(=CC=C1)N=C(N(C2=O)C3=CC=CC=C3C)CN4C=NC5=C(N=CN=C54)N
Outline: as §1

[4] = compound: Cc1sc2c(c1C)C(c1ccc(Cl)cc1)=N[C@@H](CC(=O)OC(C)(C)C)c1nnc(C)n1-2
Outline: as §1

[5] = compound: c1ccc([C@@H]2C[C@H]2NC2CCNCC2)cc1
Outline: as §1

Measured: log2 fold change

ABITRAM (UniProt Q9NX38)
inactive: [1] -0.037 | [2] 0.145 | [3] 0.032 | [4] -0.044 | [5] -0.016

ACSL1 (UniProt P33121)
inactive: [1] -0.019 | [2] 0.043 | [3] 0.064 | [4] 0.001 | [5] -0.03

ABHD10 (UniProt Q9NUJ1)
inactive: [1] -0.01 | [2] -0.04 | [3] 0.001 | [4] -0.007 | [5] 0.033

ACADM isoform 2 (UniProt P11310)
inactive: [1] 0.007 | [2] 0.024 | [3] -0.015 | [4] -0.016 | [5] -0.031

ABHD4 (UniProt Q8TB40)
inactive: [1] 0.12

ABCA2 isoform 3 (UniProt Q9BZC7)
inactive: [1] 0.027

AAAS (UniProt Q9NRG9)
inactive: [1] 0.015 | [2] 0.069 | [3] 0.036 | [4] -0.029 | [5] -0.014

ACP2 (UniProt P11117)
inactive: [1] 0.027 | [2] -0.023 | [3] 0.008 | [4] -0.023 | [5] 0.024

ACTB, A0A2R8Y793
inactive: [1] 0.028 | [2] 0.024 | [3] 0.001 | [4] 0.001 | [5] -0.011

ACO2 (UniProt Q99798)
inactive: [1] 0 | [2] 0.067 | [3] 0.044 | [4] -0.023 | [5] -0.046

ABL1 isoform 2 (UniProt P00519)
inactive: [1] 0.072 | [2] 0.031 | [3] -0.013 | [4] 0.093 | [5] -0.011

ACP1 (UniProt P24666)
inactive: [1] -0.058 | [2] -0.026 | [3] 0.184 | [4] -0.041 | [5] -0.416

ADAM15 (UniProt Q13444)
inactive: [1] -0.041 | [2] 0.059 | [3] 0.096 | [4] 0.08 | [5] 0

Two successive entries out of the list so far:
ACTB, A0A2R8Y793
inactive: [1] 0.028 | [2] 0.024 | [3] 0.001 | [4] 0.001 | [5] -0.011

ACO2 (UniProt Q99798)
inactive: [1] 0 | [2] 0.067 | [3] 0.044 | [4] -0.023 | [5] -0.046

The list continues:

ACSL4 (UniProt O60488)
inactive: [1] -0.08 | [2] 0.1 | [3] 0.132 | [4] 0.025 | [5] -0.031

ACTR1B (UniProt P42025)
inactive: [1] -0.049 | [2] 0.105 | [3] 0.034 | [4] 0.028 | [5] -0.029

ACADS (UniProt P16219)
inactive: [1] -0.009 | [2] 0.05 | [3] -0.09 | [4] -0.012 | [5] -0.049

ACOT9 isoform 4 (UniProt Q9Y305)
inactive: [1] 0.047 | [2] -0.03 | [3] -0.068 | [4] 0.117 | [5] -0.086

ABCA3 (UniProt Q99758)
inactive: [1] 0.239 | [2] 0.002 | [3] -0.05 | [4] 0.02 | [5] -0.035

ADAD1 (UniProt Q96M93)
inactive: [1] -0.054 | [2] -0.012 | [3] 0.315 | [4] 0.09 | [5] -0.001

AAK1 (UniProt Q2M2I8)
inactive: [1] 0.02 | [2] 0.039 | [3] 0.083 | [4] -0.217 | [5] -0.017

A2M (UniProt P01023)
inactive: [1] 0.043 | [2] -0.134 | [3] 0.052 | [4] 0.072 | [5] 0.181

AAR2 (UniProt Q9Y312)
inactive: [1] 0.024 | [2] 0.08 | [3] -0.053 | [4] 0.069 | [5] -0.012

ABCF1 (UniProt Q5STZ8)
inactive: [1] 0.032 | [2] 0.031 | [3] 0 | [4] -0.081 | [5] 0.06

ADAM10 (UniProt O14672)
inactive: [1] -0.001 | [2] 0.031 | [3] 0.03 | [4] 0.021 | [5] -0.031

ADAMTSL4 isoform 3 (UniProt Q6UY14)
inactive: [1] -0.057 | [2] -0.083 | [3] 0.006 | [4] 0.026 | [5] 0.021

ADAT2 (UniProt Q7Z6V5)
inactive: [1] -0.052 | [2] 0.01 | [3] 0.003 | [4] 0.027 | [5] -0.022

ABHD16A (UniProt O95870)
inactive: [1] -0.005 | [2] 0.011 | [3] 0.026 | [4] 0.066 | [5] -0.088

ABCB10 (UniProt Q9NRK6)
inactive: [1] 0.006 | [2] 0.008 | [3] -0.013 | [4] 0 | [5] 0.039
